Data taken from PMC11841255.
These are yes or no findings as the source states them, for the method shown. Binding seen in cells or lysates may run through a third protein. Some binding calls cover weakened binding; strength is not graded here. For some of these results: Tags and fused reporters may be left off the sequences shown.

Chains of the proteins cited; added tags and fusions are not shown.
UniProt P01106: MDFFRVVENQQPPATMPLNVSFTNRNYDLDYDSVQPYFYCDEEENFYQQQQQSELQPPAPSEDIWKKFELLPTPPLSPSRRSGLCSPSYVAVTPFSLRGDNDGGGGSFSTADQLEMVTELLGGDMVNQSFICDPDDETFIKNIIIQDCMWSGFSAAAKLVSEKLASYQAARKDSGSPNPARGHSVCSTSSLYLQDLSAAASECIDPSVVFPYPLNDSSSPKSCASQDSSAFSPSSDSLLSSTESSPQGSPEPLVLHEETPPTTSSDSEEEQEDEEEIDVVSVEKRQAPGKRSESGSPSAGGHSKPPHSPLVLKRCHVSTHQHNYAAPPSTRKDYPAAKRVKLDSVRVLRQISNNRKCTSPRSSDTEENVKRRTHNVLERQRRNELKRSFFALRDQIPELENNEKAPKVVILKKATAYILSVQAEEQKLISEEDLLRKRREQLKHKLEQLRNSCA

What was measured:
[1] = target: MYC, endogenous (human (endogenous in UM-UC3 and T24)) (UniProt P01106); test: co-IP; endogenous proteins; lysate of UM-UC3 or T24 BLCA cells incubated with primary antibody at 4 °C for 12 h, Protein A/G magnetic beads 1 h at 4 °C, five washes, WB
[2] = target: MYC, endogenous (human (endogenous in UM-UC3 and T24)), P01106; test: as above; conditions: remark: other sources report otherwise
Flag-MYC = Flag-MYC (UniProt P01106); test: co-IP; exogenous, tagged plasmids co-transfected in 293T cells; lysate incubated with primary antibody at 4 °C for 12 h, Protein A/G magnetic beads 1 h at 4 °C, five washes, WB; in one panel GFP-CDCA3 co-transfected with HA-MYC and Flag-TRIM28 (interaction enhanced)
HA-MYC, P01106 = test: as above; conditions: remark: other sources report otherwise

B1: Cell Division Cycle Associated-3 (CDCA3), endogenous (protein, UniProt Q99618 1-268)
chain: MGSAKSVPVTPARPPPHNKHLARVADPRSPSAGILRTPIQVESSPQPGLPAGEQLEGLKHAQDSDPRSPTLGIARTPMKTSSGDPPSPLVKQLSEVFETEDSKSNLPPEPVLPPEAPLSSELDLPLGTQLSVEEQMPPWNQTEFPSKQVFSKEEARQPTETPVASQSSDKPSRDPETPRSSGSMRNRWKPNSSKVLGRSPLTILQDDNSPGTLTLRQGKRPSPLSENVSELKEGAILGTGRLLKTGGRAWEQGQDHDKENQHFPLVES
For B1, the binding [1] was “binds”.

B2: Tripartite Motif Containing 28 (TRIM28), endogenous, Q13263 1-835 (protein)
chain: MAASAAAASAAAASAASGSPGPGEGSAGGEKRSTAPSAAASASASAAASSPAGGGAEALELLEHCGVCRERLRPEREPRLLPCLHSACSACLGPAAPAAANSSGDGGAAGDGTVVDCPVCKQQCFSKDIVENYFMRDSGSKAATDAQDANQCCTSCEDNAPATSYCVECSEPLCETCVEAHQRVKYTKDHTVRSTGPAKSRDGERTVYCNVHKHEPLVLFCESCDTLTCRDCQLNAHKDHQYQFLEDAVRNQRKLLASLVKRLGDKHATLQKSTKEVRSSIRQVSDVQKRVQVDVKMAILQIMKELNKRGRVLVNDAQKVTEGQQERLERQHWTMTKIQKHQEHILRFASWALESDNNTALLLSKKLIYFQLHRALKMIVDPVEPHGEMKFQWDLNAWTKSAEAFGKIVAERPGTNSTGPAPMAPPRAPGPLSKQGSGSSQPMEVQEGYGFGSGDDPYSSAEPHVSGVKRSRSGEGEVSGLMRKVPRVSLERLDLDLTADSQPPVFKVFPGSTTEDYNLIVIERGAAAAATGQPGTAPAGTPGAPPLAGMAIVKEEETEAAIGAPPTATEGPETKPVLMALAEGPGAEGPRLASPSGSTSSGLEVVAPEGTSAPGGGPGTLDDSATICRVCQKPGDLVMCNQCEFCFHLDCHLPALQDVPGEEWSCSLCHVLPDLKEEDGSLSLDGADSTGVVAKLSPANQRKCERVLLALFCHEPCRPLHQLATDSTFSLDQPGGTLDLTLIRARLQEKLSPPYSSPQEFAQDVGRMFKQFNKLTEDKADVQSIIGLQRFFETRMNEAFGDTKFSAVLVEPPPMSLPGAGLSSQELSGGPGDGP
B2 was tested, and the binding [2] was “binds”.

B3: GFP-CDCA3 (protein, UniProt Q99618 1-268)
chain: MGSAKSVPVTPARPPPHNKHLARVADPRSPSAGILRTPIQVESSPQPGLPAGEQLEGLKHAQDSDPRSPTLGIARTPMKTSSGDPPSPLVKQLSEVFETEDSKSNLPPEPVLPPEAPLSSELDLPLGTQLSVEEQMPPWNQTEFPSKQVFSKEEARQPTETPVASQSSDKPSRDPETPRSSGSMRNRWKPNSSKVLGRSPLTILQDDNSPGTLTLRQGKRPSPLSENVSELKEGAILGTGRLLKTGGRAWEQGQDHDKENQHFPLVES
B3 was tested, and the binding (Flag-MYC) was “binds”.

B4: Flag-TRIM28, Q13263 1-835 (protein)
chain: MAASAAAASAAAASAASGSPGPGEGSAGGEKRSTAPSAAASASASAAASSPAGGGAEALELLEHCGVCRERLRPEREPRLLPCLHSACSACLGPAAPAAANSSGDGGAAGDGTVVDCPVCKQQCFSKDIVENYFMRDSGSKAATDAQDANQCCTSCEDNAPATSYCVECSEPLCETCVEAHQRVKYTKDHTVRSTGPAKSRDGERTVYCNVHKHEPLVLFCESCDTLTCRDCQLNAHKDHQYQFLEDAVRNQRKLLASLVKRLGDKHATLQKSTKEVRSSIRQVSDVQKRVQVDVKMAILQIMKELNKRGRVLVNDAQKVTEGQQERLERQHWTMTKIQKHQEHILRFASWALESDNNTALLLSKKLIYFQLHRALKMIVDPVEPHGEMKFQWDLNAWTKSAEAFGKIVAERPGTNSTGPAPMAPPRAPGPLSKQGSGSSQPMEVQEGYGFGSGDDPYSSAEPHVSGVKRSRSGEGEVSGLMRKVPRVSLERLDLDLTADSQPPVFKVFPGSTTEDYNLIVIERGAAAAATGQPGTAPAGTPGAPPLAGMAIVKEEETEAAIGAPPTATEGPETKPVLMALAEGPGAEGPRLASPSGSTSSGLEVVAPEGTSAPGGGPGTLDDSATICRVCQKPGDLVMCNQCEFCFHLDCHLPALQDVPGEEWSCSLCHVLPDLKEEDGSLSLDGADSTGVVAKLSPANQRKCERVLLALFCHEPCRPLHQLATDSTFSLDQPGGTLDLTLIRARLQEKLSPPYSSPQEFAQDVGRMFKQFNKLTEDKADVQSIIGLQRFFETRMNEAFGDTKFSAVLVEPPPMSLPGAGLSSQELSGGPGDGP
For B4, the binding (HA-MYC, P01106) was “binds”.
